{
  "source": "the supplement of paper PMC4604168 (melanoma cell lines)",
  "note": "The list shows a part of the results. Repeats are few or missing, and single values can be far off.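 Imaging used 1,536-well plates; nuclei positive for cleaved PARP by antibody were divided by total DNA-stained nuclei to yield the apoptosis fraction. Doses for screening kept most cells viable, and cell lines differ markedly in resting and induced cleaved-PARP levels.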",
  "data": [
    {"system": "501Mel", "assay": "cleaved PARP positive nuclei fraction relative to DMSO control; melanoma cells; higher = more apoptosis", "settings": "library dose: low library concentration; 72 h", "units": {"cleaved PARP positive nuclei fraction": "%"}, "values": [
      {"smiles": "NC1(c2ccc(-c3nc4ccn5c(=O)[nH]nc5c4cc3-c3ccccc3)cc2)CCC1", "note": "+ CCc1ccc(CCOc2ccc(CC3SC(=O)NC3=O)cc2)nc1 [pioglitazone] (first compound 0.4 µM, partner dose 2 µM)", "cleaved PARP positive nuclei fraction": 76.2},
      {"smiles": "NC(=O)c1ccc(N(C(N)=O)c2c(F)cccc2F)nc1-c1ccc(F)cc1F", "note": "+ COc1cc(N2CCC(N3CCN(C)CC3)CC2)ccc1Nc1ncc(Cl)c(Nc2ccccc2S(=O)(=O)C(C)C)n1 [NVP-TAE684] (first compound 0.4 µM, partner dose 0.08 µM)", "cleaved PARP positive nuclei fraction": 30.8},
      {"smiles": "NC1(c2ccc(-c3nc4ccn5c(=O)[nH]nc5c4cc3-c3ccccc3)cc2)CCC1", "note": "+ Cc1cc([N+](=O)[O-])ccc1NS(=O)(=O)c1cc(Cl)ccc1Cl [FH535] (first compound 0.4 µM, partner dose 1 µM)", "cleaved PARP positive nuclei fraction": 198},
      {"smiles": "Cn1cnc2c(F)c(Nc3ccc(Br)cc3Cl)c(C(=O)NOCCO)cc21", "note": "[selumetinib] + Cn1cc(/C=C2\\C(=O)Nc3cccnc32)c2ccccc21 [GW441756] (first compound 0.015 µM, partner dose 0.4 µM)", "cleaved PARP positive nuclei fraction": 135},
      {"smiles": "CC(=O)O[C@@]12CO[C@@H]1C[C@H](O)[C@@]1(C)C(=O)[C@H](O)C3=C(C)[C@@H](OC(=O)[C@H](O)[C@@H](NC(=O)OC(C)(C)C)c4ccccc4)C[C@@](O)([C@@H](OC(=O)c4ccccc4)[C@H]21)C3(C)C", "note": "[Docetaxel] + COc1ccc2c(c1)CCC1C2CCC2(C)C(NCCCCCCN3C(=O)C=CC3=O)CCC12 [U73122] (first compound 0.0001 µM, partner dose 0.4 µM)", "cleaved PARP positive nuclei fraction": 43.2},
      {"smiles": "CN(c1ncccc1CNc1nc(Nc2ccc3c(c2)CC(=O)N3)ncc1C(F)(F)F)S(C)(=O)=O", "note": "+ Oc1cc(-c2nc(-c3ccccc3)[nH]c2-c2ccncc2)ccc1Cl [L779450] (first compound 0.08 µM, partner dose 0.2 µM)", "cleaved PARP positive nuclei fraction": 156},
      {"smiles": "CCN(CC)CCNC(=O)c1c(C)[nH]c(/C=C2\\C(=O)Nc3ccc(F)cc32)c1C", "note": "[sunitinib] + O=c1cc(-c2cccc3c2Sc2ccccc2S3)oc(N2CCOCC2)c1 [KU55933] (first compound 0.4 µM, partner dose 1 µM)", "cleaved PARP positive nuclei fraction": 99.7},
      {"smiles": "CC1(C)CCC(c2ccc(Cl)cc2)=C(CN2CCN(c3ccc(C(=O)NS(=O)(=O)c4ccc(N[C@H](CCN5CCOCC5)CSc5ccccc5)c(S(=O)(=O)C(F)(F)F)c4)cc3)CC2)C1", "note": "+ COC(=O)c1sccc1S(=O)(=O)Nc1ccc(Nc2ccccc2)cc1OC [GSK0660] (first compound 0.4 µM, partner dose 1 µM)", "cleaved PARP positive nuclei fraction": 60.9},
      {"smiles": "COc1ccc(C2=N[C@@H](c3ccc(Cl)cc3)[C@@H](c3ccc(Cl)cc3)N2C(=O)N2CCNC(=O)C2)c(OC(C)C)c1", "note": "[Nutlin-3] + COc1ccc(COc2ccc(Cc3cnc(N)nc3N)cc2OC)cc1 [GW2580] (first compound 0.1 µM, partner dose 1 µM)", "cleaved PARP positive nuclei fraction": 131},
      {"smiles": "Cn1cnc2c(F)c(Nc3ccc(Br)cc3Cl)c(C(=O)NOCCO)cc21", "note": "[selumetinib] + COc1ccc2c(c1)CCC1C2CCC2(C)C(NCCCCCCN3C(=O)C=CC3=O)CCC12 [U73122] (first compound 0.015 µM, partner dose 0.4 µM)", "cleaved PARP positive nuclei fraction": 124},
      {"smiles": "CC(=O)O[C@@]12CO[C@@H]1C[C@H](O)[C@@]1(C)C(=O)[C@H](O)C3=C(C)[C@@H](OC(=O)[C@H](O)[C@@H](NC(=O)OC(C)(C)C)c4ccccc4)C[C@@](O)([C@@H](OC(=O)c4ccccc4)[C@H]21)C3(C)C", "note": "[Docetaxel] + Cn1cc(/C=C2\\C(=O)Nc3cccnc32)c2ccccc21 [GW441756] (first compound 0.0001 µM, partner dose 0.4 µM)", "cleaved PARP positive nuclei fraction": 249},
      {"smiles": "NC(=O)c1ccc(N(C(N)=O)c2c(F)cccc2F)nc1-c1ccc(F)cc1F", "note": "+ O=C(Nc1ccccc1)c1cc([N+](=O)[O-])ccc1Cl [GW9662] (first compound 0.4 µM, partner dose 2 µM)", "cleaved PARP positive nuclei fraction": 187},
      {"smiles": "CC1(C)CCC(c2ccc(Cl)cc2)=C(CN2CCN(c3ccc(C(=O)NS(=O)(=O)c4ccc(N[C@H](CCN5CCOCC5)CSc5ccccc5)c(S(=O)(=O)C(F)(F)F)c4)cc3)CC2)C1", "note": "+ O=C(Nc1ccccc1)c1cc([N+](=O)[O-])ccc1Cl [GW9662] (first compound 0.4 µM, partner dose 2 µM)", "cleaved PARP positive nuclei fraction": 32},
      {"smiles": "CCN(CC)CCNC(=O)c1c(C)[nH]c(/C=C2\\C(=O)Nc3ccc(F)cc32)c1C", "note": "[sunitinib] + COc1ccc(COc2ccc(Cc3cnc(N)nc3N)cc2OC)cc1 [GW2580] (first compound 0.4 µM, partner dose 1 µM)", "cleaved PARP positive nuclei fraction": 103},
      {"smiles": "NC(=O)c1ccc(N(C(N)=O)c2c(F)cccc2F)nc1-c1ccc(F)cc1F", "note": "+ O=c1cc(-c2cccc3c2Sc2ccccc2S3)oc(N2CCOCC2)c1 [KU55933] (first compound 0.4 µM, partner dose 1 µM)", "cleaved PARP positive nuclei fraction": 145},
      {"smiles": "CCN(CC)CCNC(=O)c1c(C)[nH]c(/C=C2\\C(=O)Nc3ccc(F)cc32)c1C", "note": "[sunitinib] + c1cc(-c2cnn3cc(-c4ccc(OCCN5CCCCC5)cc4)cnc23)ccn1 [Dorsomorphin] (first compound 0.4 µM, partner dose 0.4 µM)", "cleaved PARP positive nuclei fraction": 278},
      {"smiles": "C[C@]1(O)C[C@@H](c2nc(-c3ccc4ccc(-c5ccccc5)nc4c3)c3c(N)nccn32)C1", "note": "+ Oc1nc(-c2ccc(C(F)(F)F)cc2)nc2c1CSCC2 [XAV939] (first compound 0.4 µM, partner dose 2 µM)", "cleaved PARP positive nuclei fraction": 68.3},
      {"smiles": "C[C@@H](N)c1ccc(C(=O)Nc2ccnc3[nH]ccc23)cc1", "note": "+ COc1ccc(-c2ccc3c(N4CCOCC4)nc(N4C[C@@H](C)O[C@@H](C)C4)nc3n2)cc1CO [KU0063794] (first compound 0.4 µM, partner dose 0.02 µM)", "cleaved PARP positive nuclei fraction": 64.2},
      {"smiles": "CCCCCCCCc1ccc(CCC(N)(CO)CO)cc1", "note": "[fingolimod] + O=C(O)C(=O)Nc1sc2c(c1C(=O)O)CCNC2 [TCS401] (first compound 2 µM, partner dose 1.66667 µM)", "cleaved PARP positive nuclei fraction": 112},
      {"smiles": "CCN(CC)CCNC(=O)c1c(C)[nH]c(/C=C2\\C(=O)Nc3ccc(F)cc32)c1C", "note": "[sunitinib] + Cn1cc(/C=C2\\C(=O)Nc3cccnc32)c2ccccc21 [GW441756] (first compound 0.4 µM, partner dose 0.4 µM)", "cleaved PARP positive nuclei fraction": 93.2},
      {"smiles": "CC1(C)CCC(c2ccc(Cl)cc2)=C(CN2CCN(c3ccc(C(=O)NS(=O)(=O)c4ccc(N[C@H](CCN5CCOCC5)CSc5ccccc5)c(S(=O)(=O)C(F)(F)F)c4)cc3)CC2)C1", "note": "+ c1cc(-c2cnn3cc(-c4ccc(OCCN5CCCCC5)cc4)cnc23)ccn1 [Dorsomorphin] (first compound 0.4 µM, partner dose 0.4 µM)", "cleaved PARP positive nuclei fraction": 195},
      {"smiles": "C[C@@H](N)c1ccc(C(=O)Nc2ccnc3[nH]ccc23)cc1", "note": "+ COC(=O)c1sccc1S(=O)(=O)Nc1ccc(Nc2ccccc2)cc1OC [GSK0660] (first compound 0.4 µM, partner dose 1 µM)", "cleaved PARP positive nuclei fraction": 109},
      {"smiles": "CCCCCCCCc1ccc(CCC(N)(CO)CO)cc1", "note": "[fingolimod] + COc1ccc(-c2ccc3c(N4CCOCC4)nc(N4C[C@@H](C)O[C@@H](C)C4)nc3n2)cc1CO [KU0063794] (first compound 2 µM, partner dose 0.02 µM)", "cleaved PARP positive nuclei fraction": 154},
      {"smiles": "CCCCCCCCc1ccc(CCC(N)(CO)CO)cc1", "note": "[fingolimod] + N#Cc1c(O)c2c(-c3ccc(-c4ccccc4O)cc3)csc2[nH]c1=O [A769662] (first compound 2 µM, partner dose 2 µM)", "cleaved PARP positive nuclei fraction": 185}
    ]}
  ]
}
